Tested on: V79
Test: Mammalian cell cytotoxicity test in chinese hamster V79 cells (clonogenic cytotoxicity)
Type: functional, cell-based
Conditions: Cricetulus griseus

CCn1cc(C(=O)O)c(=O)c2cc(F)c(N3CCN(C)CC3)cc21 [PEFLOXACIN]
IC50: > 500 µg/mL

Source: ChEMBL document CHEMBL1125556, “Fluoroquinolones: relationships between structural variations, mammalian cell cytotoxicity, and antimicrobial activity” (J Med Chem, 1992)
